Record: PubChem BioAssay AID1508597 (Cure First, 2020)
Shown is a random part of the about 2,100 reagents, under one of the conditions tested. 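Calls flag viability under 80% in either arm, not effects specific to rucaparib; the reference for percent is not stated.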 A reagent listed more than once was tested more than once; the source does not tell the runs apart. Reagent sequences are not shown. Not given: the 100% reference.

- Assay: 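Genes whose silencing sensitises or protects ovarian cancer cells against rucaparib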 (primary screen)
- System: human ovarian carcinoma lines grown from tumours: OCI-P5x (papillary serous) and OCI-C5x (clear cell)
- Reagents: siRNA pool against human genes, 1.25 pmol siRNA per well
- Timing: 72 h or 96 h, depending on the cell culture
- Conditions: rucaparib 20 µM (about IC30) or vehicle, present until read-out
- Rucaparib or vehicle: Rucaparib
- Cell line: OCI-C5x (clear cell)
- Detection: 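Luminescent ATP-based viability assay read 72 or 96 h after transfection, depending on culture, given as normalised percent viability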
- Scale: viability, normalised: higher = more viable cells remaining
- Rule for the call: 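Active when normalised viability falls below 80 percent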
- Calls: active = viability under 80%; inactive = viability 80% or more

| Gene | technical replicate | viability, normalised (%) | call |
| --- | --- | --- | --- |
| PRKD3 (GeneID 23683) | 1 | 63.7 | active |
| PRKD3 (GeneID 23683) | 2 | 66.6 | active |
| PRKD3 (GeneID 23683) | 3 | 63.7 | active |
| ZFYVE9 (GeneID 9372) | 1 | 54.8 | active |
| ZFYVE9 (GeneID 9372) | 2 | 60.5 | active |
| ZFYVE9 (GeneID 9372) | 3 | 57 | active |
| FEN1 (GeneID 2237) | 1 | 55.3 | active |
| FEN1 (GeneID 2237) | 2 | 39.9 | active |
| FEN1 (GeneID 2237) | 3 | 49.5 | active |
| DUT (GeneID 1854) | 1 | 30.2 | active |
| DUT (GeneID 1854) | 2 | 34.4 | active |
| DUT (GeneID 1854) | 3 | 29.7 | active |
| TNRC6B (GeneID 23112) | 1 | 58.8 | active |
| TNRC6B (GeneID 23112) | 2 | 49.9 | active |
| TNRC6B (GeneID 23112) | 3 | 49.7 | active |
| WDR5 (GeneID 11091) | 1 | 53.2 | active |
| WDR5 (GeneID 11091) | 2 | 53.6 | active |
| WDR5 (GeneID 11091) | 3 | 50.5 | active |
| ARID4A (GeneID 5926) | 1 | 59.7 | active |
| ARID4A (GeneID 5926) | 2 | 59.8 | active |
| ARID4A (GeneID 5926) | 3 | 64.1 | active |
| NBN (GeneID 4683) | 1 | 45.3 | active |
| NBN (GeneID 4683) | 1 | 45.6 | active |
| NBN (GeneID 4683) | 2 | 55.3 | active |
| NBN (GeneID 4683) | 2 | 58.1 | active |
| NBN (GeneID 4683) | 3 | 49.3 | active |
| NBN (GeneID 4683) | 3 | 54.9 | active |
| ITK (GeneID 3702) | 1 | 34.9 | active |
| ITK (GeneID 3702) | 2 | 52.6 | active |
| ITK (GeneID 3702) | 3 | 41.6 | active |
| POLG2 (GeneID 11232) | 1 | 89.4 | inactive |
| POLG2 (GeneID 11232) | 2 | 93.8 | inactive |
| POLG2 (GeneID 11232) | 3 | 90.2 | inactive |
| KSR1 (GeneID 8844) | 1 | 51.2 | active |
| KSR1 (GeneID 8844) | 2 | 32.7 | active |
| KSR1 (GeneID 8844) | 3 | 40.7 | active |

5 entries already listed, ordered by “viability, normalised (%)”, highest first:
| Gene | technical replicate | viability, normalised (%) | call |
| --- | --- | --- | --- |
| NBN (GeneID 4683) | 3 | 54.9 | active |
| ITK (GeneID 3702) | 2 | 52.6 | active |
| NBN (GeneID 4683) | 3 | 49.3 | active |
| ITK (GeneID 3702) | 3 | 41.6 | active |
| ITK (GeneID 3702) | 1 | 34.9 | active |

The results go on.
| Gene | technical replicate | viability, normalised (%) | call |
| --- | --- | --- | --- |
| RPS6KA3 (GeneID 6197) | 1 | 91.2 | inactive |
| RPS6KA3 (GeneID 6197) | 2 | 77.7 | active |
| RPS6KA3 (GeneID 6197) | 3 | 84.3 | inactive |
| PRKG2 (GeneID 5593) | 1 | 60.4 | active |
| PRKG2 (GeneID 5593) | 2 | 60.4 | active |
| PRKG2 (GeneID 5593) | 3 | 68.9 | active |
| APEX2 (GeneID 27301) | 1 | 42.8 | active |
| APEX2 (GeneID 27301) | 2 | 54 | active |
| APEX2 (GeneID 27301) | 3 | 56.8 | active |
| ASF1B (GeneID 55723) | 1 | 49.6 | active |
| ASF1B (GeneID 55723) | 2 | 24.2 | active |
| ASF1B (GeneID 55723) | 3 | 54.4 | active |
| GADD45A (GeneID 1647) | 1 | 68 | active |
| GADD45A (GeneID 1647) | 2 | 82.8 | inactive |
| GADD45A (GeneID 1647) | 3 | 90.4 | inactive |
| DGKQ (GeneID 1609) | 1 | 51.2 | active |
| DGKQ (GeneID 1609) | 2 | 58.7 | active |
| DGKQ (GeneID 1609) | 3 | 49.5 | active |
| POLR2I (GeneID 5438) | 1 | 44.8 | active |
| POLR2I (GeneID 5438) | 2 | 55.7 | active |
| POLR2I (GeneID 5438) | 3 | 48.1 | active |
| FANCB (GeneID 2187) | 1 | 69.3 | active |
| FANCB (GeneID 2187) | 2 | 68.8 | active |
| FANCB (GeneID 2187) | 3 | 53.8 | active |
| ATRX (GeneID 546) | 1 | 65.9 | active |
| ATRX (GeneID 546) | 1 | 42.7 | active |
| ATRX (GeneID 546) | 2 | 52.4 | active |
| ATRX (GeneID 546) | 2 | 34.1 | active |
| ATRX (GeneID 546) | 3 | 59.1 | active |
| ATRX (GeneID 546) | 3 | 45.7 | active |
| THOC1 (GeneID 9984) | 1 | 38.1 | active |
| THOC1 (GeneID 9984) | 2 | 54.3 | active |
| THOC1 (GeneID 9984) | 3 | 49.3 | active |
| DMPK (GeneID 1760) | 1 | 72 | active |
| DMPK (GeneID 1760) | 2 | 66.8 | active |
| DMPK (GeneID 1760) | 3 | 65.6 | active |
| H2AC4 (GeneID 8335) | 1 | 47.7 | active |
| H2AC4 (GeneID 8335) | 2 | 78.7 | active |
| H2AC4 (GeneID 8335) | 3 | 67.7 | active |
